Measured values reported in publication PMC12731528 (Chemistry (Weinheim an Der Bergstrasse, Germany), 2025).

Assay: general procedure: peptide synthesis; 2-chlorotrityl (2-ClTrt) resin; DIC, Oxyma Pure, DIPEA
Conditions: late stage modification step
[1] = 220 nm, pentatrifluoroacetic acid

Question: With “PEPTIDE1{A.R.T.K.Q.T.A.R.[Lys(isoindoline)].[NHMe]}$$$$V2.0” as the substance, how does the step yield (TFA salt (56)) read?
Answer: 70%

Question: With “PEPTIDE1{A.R.T.K.Q.T.A.R.[Lys(isoindoline)].[PEG4-BRD28]}$$$$V2.0” as the substance, how does the “final HPLC purity” value [1] read?
Answer: 97.7%

Question: And the “final HPLC purity” value (254 nm, TFA salt (56))?
Answer: 97.6%

Question: What about the “final HPLC purity” value (280 nm, TFA salt (56)) of the same substance?
Answer: 97.3%

Question: And the step yield (TFA salt (56))?
Answer: 50%

Question: With “(S)-2-((S)-6-amino-2-((2S,3R)-2-((S)-2-((S)-2-aminopropanamido)-5-guanidinopentanamido)-3-hydroxybutanamido)hexanamido)-N1-((4S,7S,10S,13S,14R)-7-(3-guanidinopropyl)-14-hydroxy-4-(4-(isoindolin-2-yl)butyl)-10-methyl-3,6,9,12-tetraoxo-2,5,8,11-tetraazapentadecan-13-yl)pentanediamide” as the substance, how does the “final purity (method not given)” value [1] read?
Answer: 97.6%

Question: And the “final purity (method not given)” value (254 nm, TFA salt (56))?
Answer: 98.1%

Question: What about the “final purity (method not given)” value (280 nm, TFA salt (56)) of the same substance?
Answer: 97.3%

Question: And the step yield (TFA salt (56))?
Answer: 70%

Question: Which “final HPLC purity” value [1] does the source give for “PEPTIDE1{A.R.T.K.Q.T.A.R.[Lys(isoindoline)].[PEG3-BRD28]}$$$$V2.0” here?
Answer: 97.3%

Question: What about the “final HPLC purity” value (254 nm, TFA salt (56)) of the same substance?
Answer: 97.1%

Question: What about the “final HPLC purity” value (280 nm, TFA salt (56)) of the same substance?
Answer: 96.2%

Question: And the step yield (TFA salt (56))?
Answer: 51%

Strings that start with PEPTIDE1 are HELM notation: dots part the residues, brackets hold end groups and non-standard residues.
